Results: article PMC8565312
These are yes or no findings as the source states them, for the method shown. In cells and extracts the contact can be indirect. Some binding calls cover weakened binding; strength is not graded here.

By UniProt entry, the sequences of proteins in these tests, tags left out.
UniProt O95602: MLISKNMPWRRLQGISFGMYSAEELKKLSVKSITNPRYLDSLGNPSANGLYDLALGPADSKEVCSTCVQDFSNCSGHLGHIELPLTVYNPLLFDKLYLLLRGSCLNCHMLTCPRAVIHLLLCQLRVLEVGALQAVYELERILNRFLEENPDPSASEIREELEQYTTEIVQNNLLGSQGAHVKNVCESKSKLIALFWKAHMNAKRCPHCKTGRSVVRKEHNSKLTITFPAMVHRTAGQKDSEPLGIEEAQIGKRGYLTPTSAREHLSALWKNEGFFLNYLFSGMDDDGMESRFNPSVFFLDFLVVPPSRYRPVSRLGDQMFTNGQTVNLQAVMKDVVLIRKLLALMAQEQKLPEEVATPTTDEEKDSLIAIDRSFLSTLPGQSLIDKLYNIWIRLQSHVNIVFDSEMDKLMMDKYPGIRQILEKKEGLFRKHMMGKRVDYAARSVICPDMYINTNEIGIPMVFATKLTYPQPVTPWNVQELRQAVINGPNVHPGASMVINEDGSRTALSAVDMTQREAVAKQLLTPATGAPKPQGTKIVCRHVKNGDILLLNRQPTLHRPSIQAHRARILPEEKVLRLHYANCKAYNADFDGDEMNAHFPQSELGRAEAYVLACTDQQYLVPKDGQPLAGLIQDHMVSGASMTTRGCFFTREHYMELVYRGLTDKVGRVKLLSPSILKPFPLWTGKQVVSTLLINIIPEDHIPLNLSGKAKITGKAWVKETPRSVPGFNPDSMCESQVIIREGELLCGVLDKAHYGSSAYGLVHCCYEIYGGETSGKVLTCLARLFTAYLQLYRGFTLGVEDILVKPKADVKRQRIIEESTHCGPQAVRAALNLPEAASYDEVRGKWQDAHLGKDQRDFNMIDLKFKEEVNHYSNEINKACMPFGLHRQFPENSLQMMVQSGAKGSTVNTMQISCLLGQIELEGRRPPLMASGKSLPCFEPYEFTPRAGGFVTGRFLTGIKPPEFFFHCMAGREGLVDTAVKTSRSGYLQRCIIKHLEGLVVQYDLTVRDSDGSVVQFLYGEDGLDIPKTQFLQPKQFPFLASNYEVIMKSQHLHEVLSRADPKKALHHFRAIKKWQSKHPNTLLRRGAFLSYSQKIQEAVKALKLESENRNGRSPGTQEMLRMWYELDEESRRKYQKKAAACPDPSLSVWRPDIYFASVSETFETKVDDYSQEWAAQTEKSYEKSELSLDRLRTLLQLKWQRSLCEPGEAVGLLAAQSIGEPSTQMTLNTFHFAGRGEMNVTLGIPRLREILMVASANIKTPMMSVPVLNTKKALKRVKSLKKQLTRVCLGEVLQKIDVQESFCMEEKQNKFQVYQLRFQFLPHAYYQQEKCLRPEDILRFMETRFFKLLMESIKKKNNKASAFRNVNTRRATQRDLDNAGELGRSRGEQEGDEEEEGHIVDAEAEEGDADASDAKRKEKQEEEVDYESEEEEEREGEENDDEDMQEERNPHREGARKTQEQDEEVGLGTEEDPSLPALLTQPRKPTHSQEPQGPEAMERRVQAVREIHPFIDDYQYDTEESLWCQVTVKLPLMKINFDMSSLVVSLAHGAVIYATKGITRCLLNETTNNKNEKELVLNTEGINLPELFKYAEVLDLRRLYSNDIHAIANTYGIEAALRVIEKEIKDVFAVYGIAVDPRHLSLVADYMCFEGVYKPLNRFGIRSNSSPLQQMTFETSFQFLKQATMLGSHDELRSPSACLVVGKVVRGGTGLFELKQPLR
UniProt Q9H9Y6: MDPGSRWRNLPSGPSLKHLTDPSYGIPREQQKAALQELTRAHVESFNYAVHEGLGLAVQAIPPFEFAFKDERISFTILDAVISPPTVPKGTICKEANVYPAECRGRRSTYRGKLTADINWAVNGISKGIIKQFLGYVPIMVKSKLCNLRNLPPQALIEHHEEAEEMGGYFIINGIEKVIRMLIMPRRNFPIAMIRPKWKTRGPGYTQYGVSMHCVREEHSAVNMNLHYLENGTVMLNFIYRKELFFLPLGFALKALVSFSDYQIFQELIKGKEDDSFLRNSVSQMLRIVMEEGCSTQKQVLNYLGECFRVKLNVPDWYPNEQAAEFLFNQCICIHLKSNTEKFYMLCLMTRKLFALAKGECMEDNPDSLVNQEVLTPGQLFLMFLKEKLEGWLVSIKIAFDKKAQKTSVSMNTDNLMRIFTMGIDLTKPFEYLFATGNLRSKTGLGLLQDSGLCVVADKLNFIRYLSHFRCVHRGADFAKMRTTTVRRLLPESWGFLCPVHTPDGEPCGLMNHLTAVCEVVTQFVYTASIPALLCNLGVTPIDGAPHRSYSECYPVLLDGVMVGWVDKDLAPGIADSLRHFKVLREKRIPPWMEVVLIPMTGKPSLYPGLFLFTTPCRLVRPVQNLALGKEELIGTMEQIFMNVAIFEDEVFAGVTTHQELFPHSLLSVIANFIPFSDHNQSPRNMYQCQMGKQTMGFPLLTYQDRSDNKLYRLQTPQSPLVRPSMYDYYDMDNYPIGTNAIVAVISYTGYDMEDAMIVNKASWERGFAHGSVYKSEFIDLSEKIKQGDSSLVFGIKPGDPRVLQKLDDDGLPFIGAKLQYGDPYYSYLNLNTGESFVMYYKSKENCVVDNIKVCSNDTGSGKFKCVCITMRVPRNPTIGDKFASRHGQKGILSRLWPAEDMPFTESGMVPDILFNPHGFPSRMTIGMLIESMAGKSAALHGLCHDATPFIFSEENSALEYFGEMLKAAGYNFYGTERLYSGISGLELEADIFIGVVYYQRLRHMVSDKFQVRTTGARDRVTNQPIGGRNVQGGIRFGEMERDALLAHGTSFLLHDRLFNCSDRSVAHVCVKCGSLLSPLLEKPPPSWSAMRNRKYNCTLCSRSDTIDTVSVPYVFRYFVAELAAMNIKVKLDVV

How the values were obtained:
[1] = molecular target: RPA194 (human (endogenous in human fibroblasts)) (UniProt O95602); experiment: co-IP; co-immunoprecipitation of TFIIE subunits (TFIIEα, TFIIEβ) and RNA polymerase I subunits (RPA194, RPA135); cells, baits and buffers not described in the methods shown
[2] = molecular target: RPA135 (human (endogenous in human fibroblasts)) (UniProt Q9H9Y6); experiment: as above

RPA135 (from UniProt Q9H9Y6 1-1135)
binding [1]: binds

B1: TFIIEβ (protein, UniProt P29084 1-291)
chain: MDPSLLRERELFKKRALSTPVVEKRSASSESSSSSSKKKKTKVEHGGSSGSKQNSDHSNGSFNLKALSGSSGYKFGVLAKIVNYMKTRHQRGDTHPLTLDEILDETQHLDIGLKQKQWLMTEALVNNPKIEVIDGKYAFKPKYNVRDKKALLRLLDQHDQRGLGGILLEDIEEALPNSQKAVKALGDQILFVNRPDKKKILFFNDKSCQFSVDEEFQKLWRSVTVDSMDEEKIEEYLKRQGISSMQESGPKKVAPIQRRKKPASQKKRRFKTHNEHLAGVLKDYSDITSSK
binding [2]: no binding | binding [1]: no binding
